# According to patent publication US20180207202A1, “METHODS FOR MOBILIZING HEMATOPOIETIC STEM CELLS” (Ohio State Innovation Foundation, priority 2013, published 2018):
# Some entries share one result that the patent states for a list of compounds.
# B1: G-CSF: Granulocyte colony stimulating factor (Amgen), routinely used to mobilize PBSC (protein, UniProt P09919 31-207, looked up)
# Granulocyte …: TPLGPASSLPQSFLLKCLEQVRKIQGDGAALQEKLVSECATYKLCHPEELVLLGHSLGIPWAPLSSCPSQALQLAGCLSQLHSGLFLYQGLLQALEGISPELGPTLDTLQLDVADFATTIWQQMEELGMAPALQPTQGAMPAFASAFQRRAGGVLVASHLQSFLEVSYRVLRHLAQP
# Assays:
# [1] = tested on: lethally irradiated C57BL/6 mice; assay: Syngeneic transplantation of mobilized grafts into lethally irradiated mice (Example 6); type: in vivo; details: 2×10^5 mobilized cells per recipient
# [2] = tested on: lethally irradiated BALB/c mice; assay: Allogeneic transplantation of mobilized grafts into lethally irradiated mice (Example 6); type: in vivo, BALB/c mice (grafts from C57BL/6); details: 8×10^5 mobilized cells per recipient
molecule,measurement,setting,value
B1,time to death of graft recipients,[1],≤ 21 days
same,time to death of graft recipients,[2],≤ 3 weeks
